Measured values taken from US6861235B1, “Method for controlling target microorganism” (priority 1998, dated 2005).
At least one compound was matched to its structure with a doubt left.

Tested on: NKR strain
Type: cell-based, Burkholderia sp. N16-1 strain
Conditions: Biolog GN plate; compounds in parentheses showed slight color development

## COC(=O)CCC(=O)O [monomethylsuccinate]
  assimilation by the NKR strain (color development of an oxidation-reduction indicator): no color development
